{
  "source": "paper PMC10521530",
  "molecules": {"B1": {"name": "Transmembrane and tetratricopeptide repeat (TPR) repeat-containing protein 3 (TMTC3) (protein, UniProt Q6ZXV5 1-915)", "chain": "MANINLKEITLIVGVVTACYWNSLFCGFVFDDVSAILDNKDLHPSTPLKTLFQNDFWGTPMSEERSHKSYRPLTVLTFRLNYLLSELKPMSYHLLNMIFHAVVSVIFLKVCKLFLDNKSSVIASLLFAVHPIHTEAVTGVVGRAELLSSIFFLAAFLSYTRSKGPDNSIIWTPIALTVFLVAVATLCKEQGITVVGICCVYEVFIAQGYTLPLLCTTAGQFLRGKGSIPFSMLQTLVKLIVLMFSTLLLVVIRVQVIQSQLPVFTRFDNPAAVSPTPTRQLTFNYLLPVNAWLLLNPSELCCDWTMGTIPLIESLLDIRNLATFTFFCFLGMLGVFSIRYSGDSSKTVLMALCLMALPFIPASNLFFPVGFVVAERVLYVPSMGFCILVAHGWQKISTKSVFKKLSWICLSMVILTHSLKTFHRNWDWESEYTLFMSALKVNKNNAKLWNNVGHALENEKNFERALKYFLQATHVQPDDIGAHMNVGRTYKNLNRTKEAEESYMMAKSLMPQIIPGKKYAARIAPNHLNVYINLANLIRANESRLEEADQLYRQAISMRPDFKQAYISRGELLLKMNKPLKAKEAYLKALELDRNNADLWYNLAIVHIELKEPNEALKKNFNRALELNPKHKLALFNSAIVMQESGEVKLRPEARKRLLSYINEEPLDANGYFNLGMLAMDDKKDNEAEIWMKKAIKLQADFRSALFNLALLYSQTAKELKALPILEELLRYYPDHIKGLILKGDILMNQKKDILGAKKCFERILEMDPSNVQGKHNLCVVYFEEKDLLKAERCLLETLALAPHEEYIQRHLNIVRDKISSSSFIEPIFPTSKISSVEGKKIPTESVKEIRGESRQTQIVKTSDNKSQSKSNKQLGKNGDEETPHKTTKDIKEIEKKRVAALKRLEEIERILNGE"}},
  "key": {"[1]": {"target": "T1, Transmembrane and tetratricopeptide repeat (TPR) repeat-containing protein 3 (TMTC3) (human (endogenous in KYSE450, KYSE410, KYSE180)) (UniProt Q6ZXV5)", "T1 sequence": "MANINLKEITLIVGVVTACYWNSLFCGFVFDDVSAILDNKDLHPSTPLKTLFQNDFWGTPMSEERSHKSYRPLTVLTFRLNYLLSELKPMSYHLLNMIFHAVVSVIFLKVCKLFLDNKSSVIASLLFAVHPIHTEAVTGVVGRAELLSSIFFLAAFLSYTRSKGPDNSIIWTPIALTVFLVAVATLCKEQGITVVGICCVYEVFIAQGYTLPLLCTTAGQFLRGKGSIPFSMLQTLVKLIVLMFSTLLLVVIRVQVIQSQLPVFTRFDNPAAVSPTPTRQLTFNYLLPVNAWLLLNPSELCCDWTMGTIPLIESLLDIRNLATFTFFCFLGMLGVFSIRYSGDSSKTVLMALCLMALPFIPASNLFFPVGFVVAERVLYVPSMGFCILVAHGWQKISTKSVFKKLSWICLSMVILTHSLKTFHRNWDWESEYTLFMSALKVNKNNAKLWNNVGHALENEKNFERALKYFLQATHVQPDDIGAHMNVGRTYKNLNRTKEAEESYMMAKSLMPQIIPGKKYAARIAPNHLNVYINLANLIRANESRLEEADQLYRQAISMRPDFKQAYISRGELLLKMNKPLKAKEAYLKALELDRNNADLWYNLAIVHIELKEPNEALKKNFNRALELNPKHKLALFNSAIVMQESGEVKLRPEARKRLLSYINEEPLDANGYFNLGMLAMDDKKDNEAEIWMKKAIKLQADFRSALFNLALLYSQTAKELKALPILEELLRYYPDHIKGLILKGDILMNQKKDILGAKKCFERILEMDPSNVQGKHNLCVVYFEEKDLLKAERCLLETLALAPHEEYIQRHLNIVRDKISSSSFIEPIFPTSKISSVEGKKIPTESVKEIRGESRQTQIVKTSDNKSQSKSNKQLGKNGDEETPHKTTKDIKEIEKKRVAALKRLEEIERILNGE", "assay": "co-IP; endogenous proteins in lysates of KYSE410 and KYSE450 cells; anti-TMTC3 or anti-IMPDH2 antibody or IgG, 4 °C for 12 h, protein A/G beads"}, "[2]": {"target": "T1, Transmembrane and tetratricopeptide repeat (TPR) repeat-containing protein 3 (TMTC3) (human (endogenous in KYSE450, KYSE410, KYSE180))", "assay": "co-IP; KYSE450 and KYSE180 cells transfected with Flag-tagged full-length or truncated IMPDH2 plasmids; immunoprecipitation with anti-TMTC3 antibody on protein A/G agarose beads, immunoblotting with anti-Flag antibody"}, "[3]": {"target": "inosine-5'-monophosphate dehydrogenase 2 (IMPDH2) (human (endogenous in KYSE450, KYSE410)) (UniProt P12268)", "assay": "co-IP; endogenous proteins in lysates of KYSE410 and KYSE450 cells; anti-TMTC3 or anti-IMPDH2 antibody or IgG, 4 °C for 12 h, protein A/G beads"}},
  "note": "No constants are given. Whether binding was seen depends on the method and setting. Binding seen in cells or lysates may run through a third protein. Some results given as binding are weak or reduced against the parent protein; the word gives no strength.",
  "data": [
    {"molecule": "inosine-5'-monophosphate dehydrogenase 2 (IMPDH2) (from UniProt P12268 1-514) (enzyme)", "values": [
      {"measurement": "binding", "setting": "[1]", "result": "binds"}
    ]},
    {"molecule": "Flag-tagged full-length IMPDH2 (from UniProt P12268 1-514) (enzyme)", "values": [
      {"measurement": "binding", "setting": "[2]", "result": "binds"}
    ]},
    {"molecule": "B1", "values": [
      {"measurement": "binding", "setting": "[3]", "result": "binds"}
    ]}
  ]
}
